Laboratory results taken from publication PMC3033365.
These are yes or no findings as the source states them, for the method shown. Binding seen in cells or lysates may run through a third protein. Some results given as binding are weak or reduced against the parent protein; the word gives no strength.

Amino acid sequences for entries named in this document (tags omitted). Residues count along the entry.
UniProt O14964: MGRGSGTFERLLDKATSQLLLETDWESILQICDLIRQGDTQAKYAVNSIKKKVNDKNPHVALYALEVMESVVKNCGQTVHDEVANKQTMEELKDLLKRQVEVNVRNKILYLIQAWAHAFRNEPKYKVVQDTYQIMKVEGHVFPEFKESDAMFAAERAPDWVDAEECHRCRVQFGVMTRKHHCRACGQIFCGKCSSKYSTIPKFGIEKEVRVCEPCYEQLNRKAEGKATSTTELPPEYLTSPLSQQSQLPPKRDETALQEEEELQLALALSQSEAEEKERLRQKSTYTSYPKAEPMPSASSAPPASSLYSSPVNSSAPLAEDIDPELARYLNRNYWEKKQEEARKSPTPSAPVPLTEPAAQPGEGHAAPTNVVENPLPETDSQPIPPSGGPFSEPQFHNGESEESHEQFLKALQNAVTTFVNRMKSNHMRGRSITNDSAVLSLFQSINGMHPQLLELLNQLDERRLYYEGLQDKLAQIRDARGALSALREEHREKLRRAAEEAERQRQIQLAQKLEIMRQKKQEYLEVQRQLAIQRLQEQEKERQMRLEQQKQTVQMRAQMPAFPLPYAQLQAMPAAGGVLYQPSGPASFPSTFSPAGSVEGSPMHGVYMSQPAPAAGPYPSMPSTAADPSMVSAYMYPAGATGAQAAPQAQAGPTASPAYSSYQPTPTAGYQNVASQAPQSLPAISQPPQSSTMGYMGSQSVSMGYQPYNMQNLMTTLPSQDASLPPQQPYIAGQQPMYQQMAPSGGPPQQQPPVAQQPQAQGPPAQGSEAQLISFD
UniProt P05923: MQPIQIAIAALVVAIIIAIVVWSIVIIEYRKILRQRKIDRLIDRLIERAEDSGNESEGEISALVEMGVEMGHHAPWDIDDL
UniProt Q10589, residues 1-161: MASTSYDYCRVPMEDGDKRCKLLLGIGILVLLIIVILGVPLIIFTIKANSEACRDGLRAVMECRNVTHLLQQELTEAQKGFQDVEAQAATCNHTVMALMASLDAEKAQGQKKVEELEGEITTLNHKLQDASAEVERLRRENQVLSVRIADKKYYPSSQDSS

Molecular target: HRS fused to SBP-CBP tags (hepatocyte growth factor-regulated tyrosine kinase substrate, ESCRT-0 component) (UniProt O14964)
Assay: pull-down; SBP-CBP-HRS co-expressed with Flag-BST-2 and/or HA-Vpu in HEK 293T cells; lysate 24 h after transfection; two consecutive rounds (streptavidin resin, elution, calmodulin resin); western blot with antibodies to HRS, HA and Flag

For “HA-tagged Vpu (HIV-1 accessory protein Vpu) (from UniProt P05923 1-81)”, the binding was “binds”.

“Flag-tagged BST-2 (bone marrow stromal antigen 2, tetherin) (from UniProt Q10589 1-161)” was tested, and the binding was “binds”.
